This data set in a line: general procedure: solution-phase peptide synthesis; PyBOP/HOBt/DIPEA.

“(S)-11-benzyl-1-(9H-fluoren-9-yl)-3,6,9,12,15-pentaoxo-2-oxa-4,7,10,13,16-pentaazaheptadecan-17-yl acetate” had a step yield (late stage modification step) of 41%.
For “2-[[2-[[2-[[2-[[2-[[2-[[2-[[2-[[2-[[2-[[2-[3-[[(1S)-2-[[(1S)-2-[[2-[(1S,2S,4R,6R,8S,9S,11S,12R,13S,19S)-12,19-difluoro-6-(3-fluorophenyl)-11-hydroxy-9,13-dimethyl-16-oxo-5,7-dioxapentacyclo[10.8.0.02,9.04,8.013,18]icosa-14,17-dien-8-yl]-2-oxo-ethoxy]methylamino]-1-methyl-2-oxo-ethyl]amino]-1-methyl-2-oxo-ethyl]amino]-3-oxo-propyl]-5-(2,5-dioxopyrrol-1-yl)benzoyl]-methyl-amino]acetyl]-methyl-amino]acetyl]-methyl-amino]acetyl]-methyl-amino]acetyl]-methyl-amino]acetyl]-methyl-amino]acetyl]-methyl-amino]acetyl]-methyl-amino]acetyl]-methyl-amino]acetyl]-methyl-amino]acetic acid”, the conjugation yield (conjugation step) came to 15.89% yield.

Source of the values: patent US20240067640 (published 2024).
